The exact form of at least one protein or probe is not confirmed. For part of these data: The comparison behind a weaker result is the experiment's own reference, which may not be listed here. For part of these data: At least one verdict rests on a figure or table, not on a statement of the authors.

Amino acid sequences for entries named in this document (tags omitted). A change or cut given only in a name is not applied to a line headed by its entry. Residues count along the entry.
UniProt Q9GZC8, 18-776: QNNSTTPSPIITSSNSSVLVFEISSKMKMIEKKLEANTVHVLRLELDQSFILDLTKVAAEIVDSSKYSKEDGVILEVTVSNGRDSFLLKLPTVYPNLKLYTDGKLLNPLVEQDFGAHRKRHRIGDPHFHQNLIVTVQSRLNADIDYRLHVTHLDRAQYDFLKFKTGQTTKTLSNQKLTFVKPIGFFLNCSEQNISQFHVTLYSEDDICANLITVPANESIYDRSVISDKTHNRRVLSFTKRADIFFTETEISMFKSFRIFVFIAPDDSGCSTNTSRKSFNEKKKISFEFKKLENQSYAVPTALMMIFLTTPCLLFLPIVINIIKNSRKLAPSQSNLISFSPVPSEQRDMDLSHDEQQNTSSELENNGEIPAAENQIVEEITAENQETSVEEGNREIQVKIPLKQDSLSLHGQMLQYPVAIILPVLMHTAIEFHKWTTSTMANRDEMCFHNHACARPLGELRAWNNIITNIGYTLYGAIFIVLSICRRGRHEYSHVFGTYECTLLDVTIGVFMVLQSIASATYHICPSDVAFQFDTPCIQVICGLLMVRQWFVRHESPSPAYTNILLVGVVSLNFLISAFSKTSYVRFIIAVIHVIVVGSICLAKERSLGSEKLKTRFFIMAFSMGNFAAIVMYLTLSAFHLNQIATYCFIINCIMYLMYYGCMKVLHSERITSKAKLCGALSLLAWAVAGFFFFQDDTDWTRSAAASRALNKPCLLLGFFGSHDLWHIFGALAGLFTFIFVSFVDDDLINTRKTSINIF

Data set [1] concerns the target cSID1 wild type (Caenorhabditis elegans) (UniProt Q9GZC8). As to the kind of experiment: cryo-EM. The settings on record: putative positively charged ion at S66/D70/D171; cryo-EM: 25 mM HEPES pH 7.4, 150 mM NaCl, 0.01% GDN, 100 uM dsRNA, 30 min; recombinant protein; protein details: His6 and FLAG after the signal peptide.
The target is the same in data set [2]. Nature of the data set: EMSA. The settings on record: 0-24 uM protein, 1 uM dsRNA; EMSA: 25 mM Tris pH 8.0, 25 mM NaCl, room temperature, 60 min, 6% native gel in 0.5x TBE; recombinant protein; protein details: His6 and FLAG after the signal peptide.
Data set [3] has as its target cSID1 third combined mutant (Caenorhabditis elegans) (UniProt Q9GZC8). Nature of the data set: EMSA. To be noted: 0-24 uM protein, 1 uM dsRNA; EMSA: 25 mM Tris pH 8.0, 25 mM NaCl, room temperature, 60 min, 6% native gel in 0.5x TBE; recombinant protein; protein details: His6 and FLAG after the signal peptide.

“GGCCGGGGGACGGGCUGGGAUGACAGAAGUCGCUUGGUGCAGAUCGGGAC / GUCCCGAUCUGCACCAAGCGACUUCUGUCAUCCCAGCCCGUCCCCCGGCC [50-bp dsRNA]”: the binding result in data set [1] is “binds”.
For “GGCCGGGGGACGGGCUGGGAUGACAGAAGUCGCUUGGUGCAGAUCGGGAC / GUCCCGAUCUGCACCAAGCGACUUCUGUCAUCCCAGCCCGUCCCCCGGCC [FAM 50-bp dsRNA]”, the binding result in data set [2] was “binds”; in data set [3], “binds more weakly”.

For the origin of these results see publication PMC11194109.
